The values that follow are results of earlier work, collected in US20120101157A1, “4,5-Diamino-3-Halo-2-Hydroxybenzoic Acid Derivatives and Preparations Thereof” (NATIONAL DEFENSE MEDICAL CENTER, priority 2010, published 2012).

In the series the target is neuraminidases. The conditions noted are these: cited from earlier work.

The term Ki denotes a dissociation constant, usually derived from enzyme kinetics or from competition with a known ligand. Consider `CC(=O)NC1C(O)C=C(C(=O)O)OC1C(O)C(O)CO` (stereo not shown) [DANA, 2-deoxy-2,3-didehydro-N-acetylneuraminic acid], for which the Ki is 4 µM.
